Experimental data taken from PMC7819943, “Rice protein-binding microarrays: a tool to detect cis-acting elements near promoter regions in rice”.
Some of the results follow.

Chains of the proteins cited; added tags and fusions are not shown.
UniProt Q0JBA9, entry or part of it: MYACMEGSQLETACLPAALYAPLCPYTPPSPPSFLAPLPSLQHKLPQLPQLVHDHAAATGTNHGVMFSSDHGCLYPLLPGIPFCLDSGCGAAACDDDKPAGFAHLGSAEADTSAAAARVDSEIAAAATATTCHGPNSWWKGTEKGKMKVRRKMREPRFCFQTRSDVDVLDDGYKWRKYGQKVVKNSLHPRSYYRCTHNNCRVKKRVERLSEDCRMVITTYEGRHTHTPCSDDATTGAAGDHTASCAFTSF

biological target: OsWRKY34 (Oryza sativa, UniProt Q0JBA9 1-250); assay: protein-binding microarray (RPBM); PBS, 2% BSA, 51.3 ng/ul salmon testes DNA, 50 uM zinc acetate, 200 nM TF, 25 C, 1 h; high values mean tight binding; conditions: protein: recombinant; tags: N-terminal polyhistidine and DsRed monomer fusion (pET32a); label: CyDye5-dUTP incorporated in the synthesized complementary strand; 3' TTTTT single-stranded linker to array surface; dsDNA, one strand shown
Procedure, shortened: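 The binding signal is fluorescence intensity per feature, in arbitrary units, read on an Axon 4000B scanner. Polyhistidine- and DsRed-tagged transcription factors (N-terminal fusions) from E. coli BL21-CodonPlus were purified on Ni–NTA and applied at 200 nM for 1 h at 25 °C to a double-stranded, BSA-blocked custom Agilent array in buffer with 50 µM zinc acetate.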

| Sequence | binding signal |
| --- | --- |
| AGCTAATCTCTTTCTCCTTTAATTCATTATCCTTTGCATGCGGAGTCACCTAGTGCAG | 8070 fluorescence intensity (a.u.) |
| TGCGTGGGTCCCAACTCCGGCCGTCTTCCGCCGTTGGATCCGGAGTCACCTAGTGCAG | 8940 fluorescence intensity (a.u.) |
| AGTGGGGTCCTTGTTGTCAGGGTGTATGTGACTTCCAAATCGGAGTCACCTAGTGCAG | 8780 fluorescence intensity (a.u.) |
| TATGTCCATAATATACCGTTACTTTATCAATTGTTCTACACGGAGTCACCTAGTGCAG | 8930 fluorescence intensity (a.u.) |
| ATCTGGATCTGGAAAGCTTTTCTCTTGATTTGTTCGTAATCGGAGTCACCTAGTGCAG | 10000 fluorescence intensity (a.u.) |
| TAGCATTAGCATAAGGGAGGGAGGGAGGGAGGGATCATTACGGAGTCACCTAGTGCAG | 16300 fluorescence intensity (a.u.) |
| AAGCAAACTCCAATTCATTCATCAACCGCCGTCTCTTCCACGGAGTCACCTAGTGCAG | 9130 fluorescence intensity (a.u.) |
| ACTTGTTGAAAATTGATTGCTTTGTTGTTGTAGTGTTTACCGGAGTCACCTAGTGCAG | 10500 fluorescence intensity (a.u.) |
| GACCTCGGCGCCAACCTCGGCGTGCTCTCCGGCCTCATCACGGAGTCACCTAGTGCAG | 8060 fluorescence intensity (a.u.) |
| TCACCTTCTATTTACAATTTTGTTATGGCGTGTGACGAACCGGAGTCACCTAGTGCAG | 9540 fluorescence intensity (a.u.) |
| GCGTCCCGCACCCGTGGCTCAACCTGTTCGTCCCGGGCTCCGGAGTCACCTAGTGCAG | 9950 fluorescence intensity (a.u.) |
| TATCTCCCTTTTGGTTTATTTATACCCTCACCATCCAATCCGGAGTCACCTAGTGCAG | 8500 fluorescence intensity (a.u.) |
| CCACCCGTGGGCCTCCTCCTCTGCCGTCTCGCTTCGCCGACGGAGTCACCTAGTGCAG | 8860 fluorescence intensity (a.u.) |
| CGCGGGAATCGGCCGGCGACGTGGGGAGGTGGGGAGGAGACGGAGTCACCTAGTGCAG | 8900 fluorescence intensity (a.u.) |
| CGTCGGTGTGGTATGCTTGTCGCGCGGCGGCGCGGCCGTACGGAGTCACCTAGTGCAG | 8790 fluorescence intensity (a.u.) |
| AGATGACTCCGTTGACTTTTAAACACATGTTTGATAATTCCGGAGTCACCTAGTGCAG | 16200 fluorescence intensity (a.u.) |
| CCATACTTTTTAGGGTTTGTGATTTTGTCCCTACTTTTTACGGAGTCACCTAGTGCAG | 9160 fluorescence intensity (a.u.) |
| GGTGACCATTCCTAGTTTCCTACCCCTCATGTTTTTCTTTCGGAGTCACCTAGTGCAG | 17000 fluorescence intensity (a.u.) |
| CAGAAAGGGGTGGTAACTAAAGTACAGTAAACATTGTTTCCGGAGTCACCTAGTGCAG | 8500 fluorescence intensity (a.u.) |
| TTTTCTCGTCTCTTGTGTCTATTTGCTGTTGGATCCGCTACGGAGTCACCTAGTGCAG | 10500 fluorescence intensity (a.u.) |
| GTTAACTATCTCATCTATATTAGTTGGAGTTTAGAAATTTCGGAGTCACCTAGTGCAG | 8370 fluorescence intensity (a.u.) |

Reformatted as comma-separated lines: part of the list above.
Sequence,binding signal
GACCTCGGCGCCAACCTCGGCGTGCTCTCCGGCCTCATCACGGAGTCACCTAGTGCAG,8060 fluorescence intensity (a.u.)
TCACCTTCTATTTACAATTTTGTTATGGCGTGTGACGAACCGGAGTCACCTAGTGCAG,9540 fluorescence intensity (a.u.)
GCGTCCCGCACCCGTGGCTCAACCTGTTCGTCCCGGGCTCCGGAGTCACCTAGTGCAG,9950 fluorescence intensity (a.u.)
TATCTCCCTTTTGGTTTATTTATACCCTCACCATCCAATCCGGAGTCACCTAGTGCAG,8500 fluorescence intensity (a.u.)
CCACCCGTGGGCCTCCTCCTCTGCCGTCTCGCTTCGCCGACGGAGTCACCTAGTGCAG,8860 fluorescence intensity (a.u.)
CGCGGGAATCGGCCGGCGACGTGGGGAGGTGGGGAGGAGACGGAGTCACCTAGTGCAG,8900 fluorescence intensity (a.u.)
CGTCGGTGTGGTATGCTTGTCGCGCGGCGGCGCGGCCGTACGGAGTCACCTAGTGCAG,8790 fluorescence intensity (a.u.)
AGATGACTCCGTTGACTTTTAAACACATGTTTGATAATTCCGGAGTCACCTAGTGCAG,16200 fluorescence intensity (a.u.)
CCATACTTTTTAGGGTTTGTGATTTTGTCCCTACTTTTTACGGAGTCACCTAGTGCAG,9160 fluorescence intensity (a.u.)
GGTGACCATTCCTAGTTTCCTACCCCTCATGTTTTTCTTTCGGAGTCACCTAGTGCAG,17000 fluorescence intensity (a.u.)

(further entries)

| Sequence | binding signal |
| --- | --- |
| AAATCATGCTCCGCGACCGCACCTCGTCGCCGCACCACTTCGGAGTCACCTAGTGCAG | 10400 fluorescence intensity (a.u.) |
| TCAAAATGTTGGTTGACTTTTGTCAGAGACGGTTGACTAGCGGAGTCACCTAGTGCAG | 10400 fluorescence intensity (a.u.) |
| CTATAGCTTCCAAGTTCCATTCCAGCTCGTATATCAGCTACGGAGTCACCTAGTGCAG | 8040 fluorescence intensity (a.u.) |
| GGCAATGTTTTAAGCTCCACGCTAGTAGTTATTGTTTTTTCGGAGTCACCTAGTGCAG | 9430 fluorescence intensity (a.u.) |
| AGCACCACCACCACCCCAGCGCCTCCTACTCCACCGGCTCCGGAGTCACCTAGTGCAG | 8830 fluorescence intensity (a.u.) |
| TTTCATAGTGTCGTTCATGGACCTTCAATTTTTAGTCATTCGGAGTCACCTAGTGCAG | 8100 fluorescence intensity (a.u.) |
| CCGCGTCGGCGCTCGCCGTCTCCGCCTCCGATCTCCACAGCGGAGTCACCTAGTGCAG | 8300 fluorescence intensity (a.u.) |
| TGTTTTTTTTCTTTCCGTATCTTTTTCTTTTTTTGGTTTTCGGAGTCACCTAGTGCAG | 19700 fluorescence intensity (a.u.) |
| CTTGCCCCACAACTCCACACACACACACAAGATTAGATACCGGAGTCACCTAGTGCAG | 8050 fluorescence intensity (a.u.) |
| ATCCTTCTGCATCCCGGGCACCTCCGGATCTACCGACAATCGGAGTCACCTAGTGCAG | 8760 fluorescence intensity (a.u.) |
| ATCTACCGTAAAAAGTTACCACCGGATACGCATCACTTCACGGAGTCACCTAGTGCAG | 8090 fluorescence intensity (a.u.) |
| GGAGGCCTAGGTGGTGGTGGTGGTCTTGGTGGAGGAGGGGCGGAGTCACCTAGTGCAG | 28600 fluorescence intensity (a.u.) |
| GTAAGCCTGCTCTTTCCATGTGCTTATGTGCTGATATGGCCGGAGTCACCTAGTGCAG | 10500 fluorescence intensity (a.u.) |
| AGAGTAAAACGAGTTTGTTCAGCTTTGTGGAGCTATGTATCGGAGTCACCTAGTGCAG | 8600 fluorescence intensity (a.u.) |
| CCTCTGCTTTTTTTCTTGTTTTTTTTAAACCTTTCTCGTCCGGAGTCACCTAGTGCAG | 11300 fluorescence intensity (a.u.) |
| CCTCGCCGCCGTCCACCTCCCCACCCGCTGCCGCCTCCGCCGGAGTCACCTAGTGCAG | 10000 fluorescence intensity (a.u.) |
| CGTCCTACTCACCGTCGCATCATCCACTGATCCGGCCGGCCGGAGTCACCTAGTGCAG | 9180 fluorescence intensity (a.u.) |
| ATTCGTTTGATGTTATGTTTTGTTCTCGCTTTGGTTGGCACGGAGTCACCTAGTGCAG | 9470 fluorescence intensity (a.u.) |
| TCTTAGCTCCGCCGTTGCCTTTGCCGTTGCCGCTGCCGTACGGAGTCACCTAGTGCAG | 9390 fluorescence intensity (a.u.) |
| TTGTTTTGAGGTCGGATGGGTGCCATGTCTGTATATTTTCCGGAGTCACCTAGTGCAG | 8600 fluorescence intensity (a.u.) |
| TCTACATCATGTTATCCGCGTCACATTACTAAAATCATAACGGAGTCACCTAGTGCAG | 9450 fluorescence intensity (a.u.) |
